Measured values reported in the supplement of paper PMC6078165.

System: Hs578T
Assay: relative JC-1 red fluorescence (viability) vs pre-drug, coculture with fibroblast (fraction); higher = more viable cancer cells
Description: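 JC-1 labelled TNBC cells cocultured 1:1 (1,500 cells each) with CellTrace Violet stained primary or stromal fibroblasts in 384-well plates in FluoroBrite medium, treated with one of 42 anticancer drugs at 0.1, 1, 10 or 100 uM. JC-1 red fluorescence (mitochondrial integrity in cancer cells only) was read by plate reader every 8 h for 72 h. Values are normalised to each well's pre-drug value. The stock of one drug was tenfold lower, so its dose labels may be too high.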

CCCCCOC(=O)Nc1nc(=O)n([C@@H]2O[C@H](C)[C@@H](O)[C@H]2O)cc1F [Capecitabine]
relative JC-1 red fluorescence
Details	8 h	16 h	24 h	32 h	40 h	48 h	56 h	64 h	72 h
10 µM	0.912 ± 0.072	0.801 ± 0.033	0.735 ± 0.012	0.6983 ± 0.0029	0.6382 ± 0.0029	0.5996 ± 0.001	0.573 ± 0.0085	0.53 ± 0.014	0.516 ± 0.024
100 µM	0.92 ± 0.025	0.809 ± 0.027	0.758 ± 0.029	0.714 ± 0.034	0.658 ± 0.035	0.621 ± 0.025	0.594 ± 0.028	0.554 ± 0.025	0.535 ± 0.017

relative JC-1 red fluorescence
Details	8 h	16 h	24 h	32 h	40 h	48 h	56 h	64 h	72 h
10 µM, coculture fibroblast: C12385	0.862 ± 0.023	0.708 ± 0.0091	0.6621 ± 0.0023	0.5836 ± 0.0029	0.526 ± 0.006	0.486 ± 0.017	0.453 ± 0.021	0.443 ± 0.029	0.425 ± 0.03
10 µM, coculture fibroblast: H6013	0.834 ± 0.017	0.743 ± 0.043	0.681 ± 0.061	0.637 ± 0.068	0.6 ± 0.07	0.583 ± 0.074	0.563 ± 0.069	0.558 ± 0.072	0.526 ± 0.068
10 µM, coculture fibroblast: H6019	0.786 ± 0.011	0.695 ± 0.0097	0.645 ± 0.024	0.554 ± 0.029	0.512 ± 0.03	0.482 ± 0.036	0.449 ± 0.04	0.424 ± 0.046	0.398 ± 0.056
10 µM, coculture fibroblast: H6076	0.94 ± 0.053	0.861 ± 0.034	0.796 ± 0.038	0.772 ± 0.027	0.722 ± 0.024	0.715 ± 0.03	0.685 ± 0.022	0.679 ± 0.0083	0.6716 ± 0.002
10 µM, coculture fibroblast: H6231	0.9306 ± 0.007	0.84 ± 0.013	0.737 ± 0.015	0.687 ± 0.023	0.613 ± 0.021	0.578 ± 0.015	0.528 ± 0.017	0.502 ± 0.014	0.478 ± 0.021
10 µM, coculture fibroblast: HADF	0.9074 ± 0.005	0.8065 ± 0.0026	0.7331 ± 0.0014	0.6906 ± 0.0053	0.66 ± 0.012	0.63 ± 0.011	0.594 ± 0.0063	0.5789 ± 0.0019	0.5496 ± 0.00096
10 µM, coculture fibroblast: HCFa	0.862 ± 0.027	0.755 ± 0.066	0.68 ± 0.073	0.601 ± 0.073	0.534 ± 0.07	0.502 ± 0.07	0.468 ± 0.069	0.451 ± 0.067	0.424 ± 0.068
10 µM, coculture fibroblast: HCPF	0.9254 ± 0.006	0.822 ± 0.0058	0.7572 ± 0.002	0.727 ± 0.013	0.657 ± 0.022	0.624 ± 0.024	0.6 ± 0.025	0.558 ± 0.024	0.538 ± 0.022
10 µM, coculture fibroblast: HHSteC	0.887 ± 0.031	0.805 ± 0.0082	0.7549 ± 0.0069	0.7192 ± 0.0021	0.667 ± 0.0072	0.6384 ± 0.0018	0.6169 ± 0.0024	0.592 ± 0.013	0.552 ± 0.018
10 µM, coculture fibroblast: HMF	0.9342 ± 0.0073	0.858 ± 0.026	0.784 ± 0.021	0.752 ± 0.018	0.688 ± 0.02	0.658 ± 0.025	0.606 ± 0.018	0.571 ± 0.018	0.548 ± 0.015
10 µM, coculture fibroblast: HPFa	0.908 ± 0.021	0.812 ± 0.011	0.7403 ± 0.0071	0.676 ± 0.015	0.623 ± 0.031	0.581 ± 0.035	0.537 ± 0.034	0.509 ± 0.04	0.462 ± 0.035
10 µM, coculture fibroblast: HUF	0.883 ± 0.039	0.731 ± 0.032	0.704 ± 0.015	0.615 ± 0.01	0.5489 ± 0.0043	0.5136 ± 0.0027	0.479 ± 0.013	0.46 ± 0.017	0.445 ± 0.022
10 µM, coculture fibroblast: Hs27A	0.915 ± 0.024	0.856 ± 0.039	0.796 ± 0.042	0.751 ± 0.066	0.697 ± 0.066	0.672 ± 0.073	0.633 ± 0.064	0.618 ± 0.071	0.565 ± 0.073
10 µM, coculture fibroblast: Hs343T	0.978 ± 0.0092	0.823 ± 0.0052	0.737 ± 0.011	0.695 ± 0.016	0.609 ± 0.013	0.566 ± 0.011	0.516 ± 0.0093	0.478 ± 0.0082	0.459 ± 0.0093
10 µM, coculture fibroblast: WS1	0.832 ± 0.039	0.698 ± 0.032	0.614 ± 0.053	0.527 ± 0.054	0.467 ± 0.062	0.433 ± 0.076	0.401 ± 0.08	0.382 ± 0.087	0.365 ± 0.089
100 µM, coculture fibroblast: C12385	0.859 ± 0.018	0.751 ± 0.037	0.692 ± 0.023	0.63 ± 0.024	0.572 ± 0.021	0.542 ± 0.021	0.514 ± 0.015	0.495 ± 0.0056	0.4771 ± 0.00035
100 µM, coculture fibroblast: H6013	0.899 ± 0.032	0.831 ± 0.039	0.79 ± 0.053	0.774 ± 0.066	0.745 ± 0.086	0.744 ± 0.093	0.726 ± 0.096	0.716 ± 0.11	0.688 ± 0.1
100 µM, coculture fibroblast: H6019	0.759 ± 0.037	0.6902 ± 0.0032	0.696 ± 0.025	0.612 ± 0.021	0.582 ± 0.026	0.562 ± 0.038	0.54 ± 0.045	0.525 ± 0.056	0.502 ± 0.058
100 µM, coculture fibroblast: H6076	0.968 ± 0.011	0.878 ± 0.025	0.827 ± 0.018	0.806 ± 0.018	0.759 ± 0.02	0.747 ± 0.017	0.726 ± 0.015	0.708 ± 0.012	0.704 ± 0.016
100 µM, coculture fibroblast: H6231	0.9066 ± 0.0052	0.8245 ± 0.0036	0.762 ± 0.0077	0.737 ± 0.013	0.684 ± 0.018	0.662 ± 0.017	0.626 ± 0.015	0.597 ± 0.01	0.584 ± 0.0078
100 µM, coculture fibroblast: HADF	0.9176 ± 0.0031	0.847 ± 0.029	0.792 ± 0.053	0.755 ± 0.071	0.71 ± 0.071	0.68 ± 0.072	0.636 ± 0.075	0.609 ± 0.061	0.568 ± 0.052
100 µM, coculture fibroblast: HCFa	0.901 ± 0.038	0.832 ± 0.063	0.787 ± 0.074	0.758 ± 0.094	0.703 ± 0.098	0.681 ± 0.096	0.649 ± 0.096	0.623 ± 0.083	0.586 ± 0.085
100 µM, coculture fibroblast: HCPF	0.934 ± 0.041	0.844 ± 0.026	0.81 ± 0.037	0.781 ± 0.022	0.733 ± 0.019	0.712 ± 0.017	0.709 ± 0.013	0.666 ± 0.0093	0.639 ± 0.0069
100 µM, coculture fibroblast: HHSteC	0.909 ± 0.043	0.8369 ± 0.0014	0.7939 ± 0.0024	0.758 ± 0.018	0.719 ± 0.0076	0.7006 ± 0.0011	0.6763 ± 0.006	0.6552 ± 0.0041	0.62489 ± 0.00057
100 µM, coculture fibroblast: HMF	0.912 ± 0.0097	0.8175 ± 0.0064	0.767 ± 0.0088	0.74 ± 0.022	0.683 ± 0.025	0.656 ± 0.042	0.635 ± 0.053	0.606 ± 0.046	0.589 ± 0.052
100 µM, coculture fibroblast: HPFa	0.9539 ± 0.0014	0.8631 ± 0.005	0.8259 ± 0.0066	0.7841 ± 0.0065	0.756 ± 0.018	0.732 ± 0.016	0.698 ± 0.0097	0.683 ± 0.011	0.6476 ± 0.00094
100 µM, coculture fibroblast: HUF	0.9238 ± 0.006	0.783 ± 0.036	0.799 ± 0.046	0.708 ± 0.043	0.665 ± 0.048	0.639 ± 0.035	0.61 ± 0.029	0.595 ± 0.025	0.585 ± 0.018
100 µM, coculture fibroblast: Hs27A	0.9111 ± 0.0032	0.875 ± 0.015	0.8364 ± 0.001	0.811 ± 0.0066	0.773 ± 0.016	0.758 ± 0.023	0.727 ± 0.025	0.721 ± 0.025	0.667 ± 0.036
100 µM, coculture fibroblast: Hs343T	0.925 ± 0.032	0.802 ± 0.021	0.774 ± 0.026	0.757 ± 0.03	0.704 ± 0.033	0.683 ± 0.033	0.66 ± 0.034	0.626 ± 0.034	0.614 ± 0.032
100 µM, coculture fibroblast: WS1	0.8072 ± 0.0079	0.717 ± 0.029	0.676 ± 0.03	0.601 ± 0.037	0.537 ± 0.044	0.519 ± 0.043	0.494 ± 0.047	0.483 ± 0.051	0.468 ± 0.049

± gives the standard deviation of the averaged measurements. The reference is the same well before dosing, and untreated signal decays as well.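 Fibroblast labels denote human fibroblasts, mainly primary ones from uterus (C12385, HUF), lung (H6013), bone (Hs27A), adrenal (HADF) and skin (WS1), plus mammary HMF and breast cancer-associated Hs343T. Cancer cells are basal-like or mesenchymal-like triple-negative breast cancer lines. A hit is a response shift exceeding 3x replicate standard deviation. The tissue of the other fibroblasts is not given here.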
